Laboratory results: patent US20150366877A1, “METHODS OF TREATMENT OF HUMAN CYTOMEGALOVIRUS INFECTION AND DISEASES WITH BROMODOMAIN INHIBITORS” (Washington University, priority 2013, published 2015)

System: HCMV
Assay: Anti-HCMV activity in cultured primary human fibroblasts
Type: cell-based, Human cytomegalovirus
Text: This example illustrates anti-HCMV activity of bromodomain inhibitors in cultured primary human fibroblasts.

## CCNC(=O)C[C@@H]1N=C(c2ccc(Cl)cc2)c2cc(OC)ccc2-n2c(C)nnc21 [I-BET762, 2-[(4S)-6-(4-chlorophenyl)-8-methoxy-1-methyl-4H-[1,2,4]triazolo[4,3-a][1,4]benzodiazepine-4-yl]-N-ethylacetamide]
  Concentration to inhibit HCMV replication: 0.781 to 1.562 µM
